Experimental data reported in publication PMC8013833.
These are yes or no findings as the source states them, for the method shown. Binding seen in cells or lysates may run through a third protein. Some binding calls cover weakened binding; strength is not graded here.

Amino acid sequences for entries named in this document (tags omitted).
UniProt Q9WTL8: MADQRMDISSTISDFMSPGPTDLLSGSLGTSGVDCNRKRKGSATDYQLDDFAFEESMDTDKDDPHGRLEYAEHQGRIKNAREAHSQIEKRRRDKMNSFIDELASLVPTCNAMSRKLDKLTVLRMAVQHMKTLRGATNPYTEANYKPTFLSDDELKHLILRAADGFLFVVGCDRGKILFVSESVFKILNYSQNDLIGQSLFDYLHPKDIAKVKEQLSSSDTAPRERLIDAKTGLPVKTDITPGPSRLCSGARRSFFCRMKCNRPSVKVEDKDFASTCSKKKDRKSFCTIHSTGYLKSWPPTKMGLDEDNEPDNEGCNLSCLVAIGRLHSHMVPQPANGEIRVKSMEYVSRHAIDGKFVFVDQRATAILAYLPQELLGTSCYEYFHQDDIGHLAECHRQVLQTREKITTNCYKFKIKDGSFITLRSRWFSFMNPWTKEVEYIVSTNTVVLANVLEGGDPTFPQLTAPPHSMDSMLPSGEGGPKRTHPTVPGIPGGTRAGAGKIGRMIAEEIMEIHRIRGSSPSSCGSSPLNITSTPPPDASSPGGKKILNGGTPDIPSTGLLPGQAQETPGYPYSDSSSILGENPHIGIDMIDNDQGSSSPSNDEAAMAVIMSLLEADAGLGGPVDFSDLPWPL
UniProt Q8BSK8: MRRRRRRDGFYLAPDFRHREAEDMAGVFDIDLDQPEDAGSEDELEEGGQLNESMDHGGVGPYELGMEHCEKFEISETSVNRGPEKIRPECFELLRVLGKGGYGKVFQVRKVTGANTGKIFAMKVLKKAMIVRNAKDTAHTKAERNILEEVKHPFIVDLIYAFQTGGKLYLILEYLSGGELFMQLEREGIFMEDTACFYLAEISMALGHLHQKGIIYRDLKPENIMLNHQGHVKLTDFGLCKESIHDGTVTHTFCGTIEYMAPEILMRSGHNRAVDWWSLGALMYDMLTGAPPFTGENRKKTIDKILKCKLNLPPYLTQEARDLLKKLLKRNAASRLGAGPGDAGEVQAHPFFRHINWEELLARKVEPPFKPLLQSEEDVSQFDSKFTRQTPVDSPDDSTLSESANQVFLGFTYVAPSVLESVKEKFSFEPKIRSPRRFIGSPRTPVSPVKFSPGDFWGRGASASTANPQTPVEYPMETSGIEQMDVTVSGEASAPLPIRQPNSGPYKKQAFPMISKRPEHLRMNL

How the values were obtained:
[1] = target: BMAL1 (mouse (endogenous in mouse adult lung fibroblasts)) (UniProt Q9WTL8); experiment: co-IP; WT cells synchronised by a 2-h dexamethasone pulse and harvested 12 and 24 h after the medium change; BMAL1 immunoprecipitated, Western blot for BMAL1, S6K and eIF4
[2] = target: BMAL1 (mouse (endogenous in mouse adult lung fibroblasts)) (UniProt Q9WTL8); experiment: condition: only in cells without CRY1 and CRY2 (CKO); co-IP; CRY-deficient (CKO) cells synchronised by a 2-h dexamethasone pulse and harvested 12 and 24 h after the medium change; BMAL1 immunoprecipitated, Western blot for BMAL1, S6K and eIF4

- binding [1]: binds
- binding [2]: no binding
Substance: S6K1 (from UniProt Q8BSK8 1-525)
